This experiment addresses DNA methyltransferase 1 (DNMT1) (human (endogenous in HEK293T)) (UniProt P26358). Description: co-IP; HEK293T lysates in WB/IP buffer (50 mM Tris pH 7.5, 1% Triton X-100, 150 mM NaCl) 48 h after transfection; primary antibody 2 h at 4°C, protein G agarose overnight at 4°C, western blot; anti-DNMT1 antibody for NS1, NS2 and NS1-70 (Fig 5B, 6D), IP antibody of Fig 5A not told; with or without HBoV transfection (pHBoV-NS1KO or pHBoV-NP1KO). (Immunoblotting shows a protein as a band on a membrane.)

Amino acid sequences for entries named in this document (tags omitted).
UniProt P26358: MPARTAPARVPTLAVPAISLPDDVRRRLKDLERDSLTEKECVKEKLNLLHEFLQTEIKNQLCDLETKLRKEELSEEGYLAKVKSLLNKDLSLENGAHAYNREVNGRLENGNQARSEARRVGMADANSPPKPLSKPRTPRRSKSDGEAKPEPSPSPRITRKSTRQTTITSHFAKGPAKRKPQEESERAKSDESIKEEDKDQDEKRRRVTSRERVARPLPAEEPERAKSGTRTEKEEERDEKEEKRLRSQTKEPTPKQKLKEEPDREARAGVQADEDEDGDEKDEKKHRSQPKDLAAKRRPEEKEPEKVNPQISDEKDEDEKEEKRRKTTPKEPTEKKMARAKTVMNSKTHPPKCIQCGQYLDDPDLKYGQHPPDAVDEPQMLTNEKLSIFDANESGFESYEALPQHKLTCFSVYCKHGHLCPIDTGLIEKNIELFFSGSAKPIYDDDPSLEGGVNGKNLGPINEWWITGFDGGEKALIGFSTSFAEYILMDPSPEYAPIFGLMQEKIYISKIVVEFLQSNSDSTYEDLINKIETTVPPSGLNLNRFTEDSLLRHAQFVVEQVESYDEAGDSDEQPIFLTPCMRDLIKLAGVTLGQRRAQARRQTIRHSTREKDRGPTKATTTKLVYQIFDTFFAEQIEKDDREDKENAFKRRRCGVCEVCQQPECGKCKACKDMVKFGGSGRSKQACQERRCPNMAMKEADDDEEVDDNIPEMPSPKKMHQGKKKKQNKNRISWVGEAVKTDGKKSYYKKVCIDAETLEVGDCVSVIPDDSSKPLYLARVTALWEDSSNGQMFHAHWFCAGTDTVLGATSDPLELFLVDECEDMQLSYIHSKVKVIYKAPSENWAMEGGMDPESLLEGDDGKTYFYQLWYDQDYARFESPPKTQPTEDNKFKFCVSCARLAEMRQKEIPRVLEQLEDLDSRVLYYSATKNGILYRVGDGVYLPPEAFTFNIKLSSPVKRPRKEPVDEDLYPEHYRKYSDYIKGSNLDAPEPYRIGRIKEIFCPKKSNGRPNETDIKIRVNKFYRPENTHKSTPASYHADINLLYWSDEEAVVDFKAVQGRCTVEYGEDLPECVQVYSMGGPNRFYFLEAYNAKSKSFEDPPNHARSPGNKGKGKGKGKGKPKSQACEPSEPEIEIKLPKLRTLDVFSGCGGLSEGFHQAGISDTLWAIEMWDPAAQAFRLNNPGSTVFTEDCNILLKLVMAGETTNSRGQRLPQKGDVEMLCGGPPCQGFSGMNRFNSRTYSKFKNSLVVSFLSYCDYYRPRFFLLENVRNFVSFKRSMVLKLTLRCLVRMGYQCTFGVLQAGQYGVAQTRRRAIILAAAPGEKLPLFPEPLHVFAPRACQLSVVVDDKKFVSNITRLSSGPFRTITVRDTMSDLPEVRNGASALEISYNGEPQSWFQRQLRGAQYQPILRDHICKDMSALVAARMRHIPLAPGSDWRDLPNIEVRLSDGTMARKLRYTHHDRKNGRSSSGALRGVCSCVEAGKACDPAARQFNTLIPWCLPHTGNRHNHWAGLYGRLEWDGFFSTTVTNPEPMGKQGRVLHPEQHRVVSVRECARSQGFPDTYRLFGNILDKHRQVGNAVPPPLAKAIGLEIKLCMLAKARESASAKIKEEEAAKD

These are yes or no findings as the source states them, for the method shown. Binding seen in cells or lysates may run through a third protein. Where a sequence is shown, tags or fusion partners need not be part of it.

B1: FLAG tagged NP1 of human bocavirus 1 (FLAG-NP1) (protein, UniProt Q3YPH5 1-219)
chain: MSSGNMKDKHRSYKRKGSPERGERKRHWQTTHHRSRSRSPIRHSGERGSGSYHQEHPISHLSSCTASKTSDQVMKTRESTSGKKDNRTNPYTVFSQHRASNPEAPGWCGFYWHSTRIARDGTNSIFNEMKQQFQQLQIDNKIGWDNTRELLFNQKKTLDQKYRNMFWHFRNNSDCERCNYWDDVYRRHLANVSSQTEADEITDEEMLSAAESMEADASN
As to B1, the binding result is “no binding”.

The values are drawn from paper PMC11594422.
